Reference: PubChem BioAssay AID1671190 (National Center for Advancing Translational Sciences (NCATS), 2021)
Several values for one entry are separate records, joined by “and”; a condition that tells them apart may be missing. Equal entries are not always repeated. The campaign covered roughly 580,000 compounds. About 6,100 (1.1%) were called active. The shares of active, inactive and inconclusive entries below differ from those in the screen. The call rests on the fitted dose curve; in most records, active means well fitted inhibition curve with a large enough effect; inconclusive means small, poorly fitted or top-dose-only effect, or another doubt; inactive means no such curve, though single readings can be large or run the other way. Potencies beside an inconclusive call are fits to weak or partial responses and may not hold up.

Protein sequences, listed by entry. Tags and fused reporters are not part of them.
UniProt P18054, whole entry, looked up: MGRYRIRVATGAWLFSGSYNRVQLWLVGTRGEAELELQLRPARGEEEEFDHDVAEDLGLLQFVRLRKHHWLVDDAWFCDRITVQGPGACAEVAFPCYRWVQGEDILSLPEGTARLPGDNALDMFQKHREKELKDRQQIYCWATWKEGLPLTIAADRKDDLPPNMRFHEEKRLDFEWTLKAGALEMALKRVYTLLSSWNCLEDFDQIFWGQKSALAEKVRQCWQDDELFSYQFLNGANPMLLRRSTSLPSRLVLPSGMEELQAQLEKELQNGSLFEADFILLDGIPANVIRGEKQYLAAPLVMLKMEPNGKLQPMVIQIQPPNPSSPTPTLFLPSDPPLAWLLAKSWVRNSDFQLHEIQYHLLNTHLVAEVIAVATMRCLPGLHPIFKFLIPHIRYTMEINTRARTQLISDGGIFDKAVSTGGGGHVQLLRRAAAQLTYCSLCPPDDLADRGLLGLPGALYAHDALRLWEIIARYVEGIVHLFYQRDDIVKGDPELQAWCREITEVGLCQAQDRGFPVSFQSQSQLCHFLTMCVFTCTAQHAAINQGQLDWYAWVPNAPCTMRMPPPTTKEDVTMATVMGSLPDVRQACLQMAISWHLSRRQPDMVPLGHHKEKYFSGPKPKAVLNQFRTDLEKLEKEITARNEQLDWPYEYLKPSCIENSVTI

target: Polyunsaturated fatty acid lipoxygenase ALOX12 (Homo sapiens) (UniProt P18054); assay: Primary qHTS assay for inhibitors of human arachidonate 12S-lipoxygenase (ALOX12): Round 2; details: purified 12hLO, xylenol orange hydroperoxide absorbance; series mostly up to 108 µM
How it was run: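 Hydroperoxide product was detected by ferrous iron/xylenol orange as the 573 to 405 nm absorbance ratio. Arachidonic acid at 40 uM (final) was turned over for 30 min at room temperature by 150 nM human 12hLO, pH 7.0 Hepes buffer, after 15 min compound preincubation.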
Potency means the concentration at half of the fitted maximal effect.

Row | Compound | Potency
1 | COC[C@@H]1CN(S(=O)(=O)c2ccc(C)cc2)C[C@H]1c1ccncc1 | inconclusive: 56.2 µM [inhibitor, partial curve, poor fit]
2 | O=C(Cc1cccs1)Nc1ccc(C(=O)O)cc1 | inconclusive: 25.1 µM [inhibitor, single point]
3 | COc1cc([C@H]2Oc3cc([C@H]4Oc5cc(O)cc(O)c5C(=O)[C@@H]4O)ccc3O[C@@H]2CO)ccc1O | inconclusive: 8.09 µM [inhibitor, partial curve, poor fit] and inconclusive: 50.1 µM [inhibitor, partial curve, poor fit]
4 | CCCn1nc(C(=O)Nc2cccc(Cl)c2C)c2ccccc2c1=O | inactive
5 | COc1ccccc1-n1c(SCC(=O)NC(C)C)nc2ccsc2c1=O | inactive
6 | Cc1ccccc1Nc1nc(CSc2nnc3n2CCCCC3)cs1 | inconclusive: 79.4 µM [inhibitor, single point]
7 | N#C/C(=C1/SC[C@@H](c2ccc(Cl)cc2Cl)S1)n1ccnc1 | inconclusive: 11.4 µM [inhibitor, partial curve, poor fit]
8 | COc1cc(CN2C[C@@H]3C(=O)N(CCc4ccccc4)C(=O)[C@@H]3C2)cc(OC)c1 | inactive
9 | CC(C)c1ccccc1OCC(=O)N1CCCCCCC1 | inconclusive: 39.8 µM [inhibitor, partial curve, poor fit]
10 | CN(C)c1nc(-c2ccncc2)nc2c1CCN(C(=O)c1ccc(=O)[nH]c1)C2 | inactive
11 | N#CC1(NC(=O)CNc2cccc(Cl)c2F)CCCC1 | inconclusive: 100 µM [inhibitor, partial curve, poor fit]
12 | CS(=O)(=O)c1ccc2nc(NC(=O)c3ccccc3Br)sc2c1 | inconclusive: 35.5 µM [inhibitor, partial curve, poor fit]
13 | COc1cccc(N2CCN(CC(=O)NC(=O)NCC(F)(F)F)CC2)c1 | inactive
14 | CN(CCc1noc(C2CN(Cc3ccc(F)c(F)c3)C2)n1)C(=O)C1CC1 | inconclusive: 79.4 µM [inhibitor, partial curve, poor fit]
15 | CN(C)C(=O)c1ccc(-c2ccc3ncnc(NCc4cccs4)c3c2)cc1 | inconclusive: 7.94 µM [inhibitor, partial curve, poor fit]
16 | CCOC(=O)N1CCN(Cc2nc3cc(NC(=O)CC)ccc3n2CC)CC1 | inconclusive: 4.47 µM [inhibitor, full curve, poor fit]
17 | CCOc1ccc(Nc2ncnc3c2cnn3-c2ccc(F)cc2)cc1 | inactive
18 | CC1(C(=O)O)CCN(C(=O)C2CCCCC2)CC1 | inconclusive: 141 µM [inhibitor, single point]
19 | CCOC(=O)C1=C(N2CCCCC2)c2cc3c(n2C1=O)CCCC3 | inactive
20 | CCc1ccc(-c2nnn(CC(=O)c3ccccc3F)n2)cc1 | inactive
21 | ClCc1nc2ccccc2n1Cc1ccccc1 | inconclusive: 35.5 µM [inhibitor, partial curve, poor fit]
22 | Cc1noc2ncnc(N3CCCC(C(=O)NCc4ccc(F)cc4)C3)c12 (stereo not drawn) | inconclusive: 44.7 µM [inhibitor, partial curve, poor fit]
23 | Cc1nc2c(C(=O)NCc3ccccc3Cl)cnn2c(C)c1Cc1ccccc1 | inconclusive: 79.4 µM [inhibitor, partial curve, poor fit]

Row | Compound | Potency
24 | Cc1ccc(Cl)cc1NC(=O)c1ccc2ccccc2n1 | inconclusive: 79.4 µM [inhibitor, partial curve, poor fit]
25 | Cc1nc(N2CCCC2)ncc1C(=O)N1CCN(c2ccc(Cl)cc2)CC1 | inactive
26 | COc1ccc(CCNC(=O)[C@@H](C)C2CC[C@@]3(C)CC[C@H](NC(=O)c4ccncc4)[C@@H](C)[C@@H]3[C@H]2O)cc1OC (stereo partly drawn) | inactive
27 | CCOC(=O)c1c(-c2ccccc2)oc2ccc(O)c(CN3CCCC3)c12 | inconclusive: 10 µM [inhibitor, partial curve, poor fit]
28 | CSc1nc2sc3c(c2c(=O)n1-c1ccccc1)CC(C(C)C)OC3 (stereo not drawn) | inactive
29 | CCCNC(=O)C1(C)CCN(Cc2ccc(-c3ccccc3)o2)C1 (stereo not drawn) | inconclusive: 126 µM [inhibitor, single point]
30 | CN1CCC(N(C)S(=O)(=O)c2ccc(NC(=O)c3cc4c(F)cccc4s3)cc2)CC1 | inconclusive: 44.7 µM [inhibitor, partial curve, poor fit]
31 | CCN(CC)C(=O)C1=C(C)N(CCC2=CCCCC2)C(=O)C(CC(=O)NCc2cccs2)C1 (stereo not drawn) | inconclusive: 141 µM [inhibitor, single point]
32 | CC[C@H]1CN(C(C)=O)CC[C@H]1CC(=O)Nc1nccs1 | inactive
33 | COc1cc(C(=O)NC(=S)N(CCC#N)Cc2cccnc2)cc(OC)c1OC | inconclusive: 100 µM [inhibitor, partial curve, poor fit]
34 | CC(NNC(=S)N1CCN(c2ccccn2)CC1)c1nccc2ccccc12 (stereo not drawn) | inconclusive: 50.1 µM [inhibitor, partial curve, poor fit]
35 | Cn1cc(CN[C@H]2C[C@H]3C(=O)NC[C@@H](CCC(=O)N4CCc5ccccc54)N3C2)c2ccccc21 | inactive
36 | CC(C)c1cc(C(=O)NNC(=S)NCc2ccco2)c(O)c(C(C)C)c1 | active: 35.5 µM
37 | CCCCCCCCn1c2c(c(=N)c3ccccc31)CCC2 | inconclusive: 70.8 µM [inhibitor, partial curve, poor fit]
38 | CNCC(=O)N1CCCC(N2CCN(Cc3ccc4c(c3)OCO4)CC2)C1 (stereo not drawn) | inconclusive: 14.1 µM [inhibitor, full curve]
39 | CCOC(CCNC(=O)c1cc(-c2cccs2)nc2ccccc12)OCC | inconclusive: 158 µM [inhibitor, partial curve, poor fit]
40 | COc1ccc(Br)cc1CNC(=O)CCC(=O)N1CCSc2nc(C)cc(C)c21 | inactive
41 | Cc1ccc(Cl)cc1N1CCN(C(=O)CCS(=O)(=O)c2cccc3nonc23)CC1 | inactive
42 | CNc1nc(-c2cccc(C#N)c2)nc2ccccc12 | inconclusive: 12.6 µM [inhibitor, partial curve, poor fit]
43 | Cc1ccc(-c2nn(C)c(=O)c3ccccc23)cc1S(=O)(=O)N1CCCCC1 | inconclusive: 44.7 µM [inhibitor, partial curve, poor fit]
44 | O=c1cc(CSc2nnc(NC3CC3)s2)c2ccc(O)cc2o1 | inconclusive: 39.8 µM [inhibitor, partial curve, poor fit]
45 | CC(C)CCN(CC(=O)NCc1ccc(F)cc1)S(=O)(=O)c1ccccc1F | inactive
46 | O=C(NCCO)c1ccc(CSc2nc3ccccc3[nH]2)cc1 | inconclusive: 3.16 µM [inhibitor, full curve, poor fit]

Row | Compound | Potency
47 | NC1=C(O)C(=O)C(c2ccccc2)O1 (stereo not drawn) | inconclusive: 5.01 µM [inhibitor, full curve, poor fit]
48 | COc1ccc(NC(=O)C(C)n2nc(-c3cc(C)ccc3C)c3c(c2=O)CCCC3)cc1 (stereo not drawn) | inconclusive: 44.7 µM [inhibitor, partial curve, poor fit]
49 | CCN(CC)S(=O)(=O)c1ccc(C)c(NC(=S)Nc2cccc(S(=O)(=O)N3CCCCCC3)c2)c1 | inconclusive: 50.1 µM [inhibitor, partial curve, poor fit]
50 | Cc1[nH]c2ccccc2c1C(=O)CSc1nnc(CC(C)c2ccccc2)o1 (stereo not drawn) | inactive
51 | CC1=CC(C)(C)NC(=S)N1c1cccc(C)c1 | inconclusive: 79.4 µM [inhibitor, partial curve, poor fit]
52 | Cc1cccc(Nc2nc(NC3CCCC3)nc3c2cnn3-c2ccccc2)c1 | inactive
53 | CCOc1cc(C)c(S(=O)(=O)NC2CCCCC2)cc1C | inactive
54 | Nc1ccc(C#Cc2ccc3oc4ccccc4c(=O)c3c2)cc1 | inconclusive: 100 µM [inhibitor, single point]
55 | Cc1ccc(C(=O)/C=C/Nc2ccccc2C(N)=O)o1 | inconclusive: 0.447 µM [inhibitor, full curve]
56 | Cc1ccc(S(=O)(=O)CCC(=O)Nc2cc(C)on2)cc1 | inactive
57 | Cc1sc(NC(=O)c2ccc(Cl)s2)c(C(N)=O)c1C | inconclusive: 100 µM [inhibitor, partial curve, poor fit]
58 | Cc1nn(-c2ccccc2)cc1/C=N/NC(N)=S | inconclusive: 44.7 µM [inhibitor, partial curve, poor fit]
59 | NS(=O)(=O)c1ccc(CCNC(=O)Cc2ccccc2[N+](=O)[O-])cc1 | inactive
60 | C#CCNC(=O)[C@H]1C[C@@H](O)[C@H](O)[C@@H]2N=C(Nc3cccc4ccccc34)S[C@@H]21 | inactive
61 | COCCNC(=O)C(=O)N1CCN(c2nc(CC(C)C)c3c(c2C#N)CCCC3)CC1 | inactive
62 | Cc1ccc(C(=O)n2c(-c3ccccc3)cnc2SCC(=O)Nc2ccc(C)cc2C)cc1 | inactive
63 | N#Cc1nc(-c2cccc3ccccc23)oc1NCCCn1ccnc1 | inconclusive: 50.1 µM [inhibitor, partial curve, poor fit]
64 | O=C(Nc1ccc(F)c(F)c1)c1ccccc1 | inconclusive: 39.8 µM [inhibitor, partial curve, poor fit]
65 | COc1cc(C2C(C#N)=C(N)OC3=C2C(=O)CC(C)(C)C3)c([N+](=O)[O-])cc1OC (stereo not drawn) | inconclusive: 89.1 µM [inhibitor, partial curve, poor fit]
66 | CN(C)CC1(O)CCC2(CCN(C(=O)CCCc3ccccc3)CC2)CC1 | inactive
67 | CCCCNc1cc(=O)n(C)c(=O)n1C | inactive
68 | COc1ccc(C(=O)CC2(O)C(=O)Nc3ccc(F)cc32)cc1 (stereo not drawn) | inactive

Some of these compounds in order of SMILES length, ascending.
Row | Compound | Potency
67 | CCCCNc1cc(=O)n(C)c(=O)n1C | inactive
47 | NC1=C(O)C(=O)C(c2ccccc2)O1 (stereo not drawn) | inconclusive: 5.01 µM [inhibitor, full curve, poor fit]
64 | O=C(Nc1ccc(F)c(F)c1)c1ccccc1 | inconclusive: 39.8 µM [inhibitor, partial curve, poor fit]
51 | CC1=CC(C)(C)NC(=S)N1c1cccc(C)c1 | inconclusive: 79.4 µM [inhibitor, partial curve, poor fit]
55 | Cc1ccc(C(=O)/C=C/Nc2ccccc2C(N)=O)o1 | inconclusive: 0.447 µM [inhibitor, full curve]
57 | Cc1sc(NC(=O)c2ccc(Cl)s2)c(C(N)=O)c1C | inconclusive: 100 µM [inhibitor, partial curve, poor fit]
46 | O=C(NCCO)c1ccc(CSc2nc3ccccc3[nH]2)cc1 | inconclusive: 3.16 µM [inhibitor, full curve, poor fit]
54 | Nc1ccc(C#Cc2ccc3oc4ccccc4c(=O)c3c2)cc1 | inconclusive: 100 µM [inhibitor, single point]
68 | COc1ccc(C(=O)CC2(O)C(=O)Nc3ccc(F)cc32)cc1 (stereo not drawn) | inactive
52 | Cc1cccc(Nc2nc(NC3CCCC3)nc3c2cnn3-c2ccccc2)c1 | inactive
50 | Cc1[nH]c2ccccc2c1C(=O)CSc1nnc(CC(C)c2ccccc2)o1 (stereo not drawn) | inactive
45 | CC(C)CCN(CC(=O)NCc1ccc(F)cc1)S(=O)(=O)c1ccccc1F | inactive
59 | NS(=O)(=O)c1ccc(CCNC(=O)Cc2ccccc2[N+](=O)[O-])cc1 | inactive
61 | COCCNC(=O)C(=O)N1CCN(c2nc(CC(C)C)c3c(c2C#N)CCCC3)CC1 | inactive
62 | Cc1ccc(C(=O)n2c(-c3ccccc3)cnc2SCC(=O)Nc2ccc(C)cc2C)cc1 | inactive
48 | COc1ccc(NC(=O)C(C)n2nc(-c3cc(C)ccc3C)c3c(c2=O)CCCC3)cc1 (stereo not drawn) | inconclusive: 44.7 µM [inhibitor, partial curve, poor fit]
65 | COc1cc(C2C(C#N)=C(N)OC3=C2C(=O)CC(C)(C)C3)c([N+](=O)[O-])cc1OC (stereo not drawn) | inconclusive: 89.1 µM [inhibitor, partial curve, poor fit]
49 | CCN(CC)S(=O)(=O)c1ccc(C)c(NC(=S)Nc2cccc(S(=O)(=O)N3CCCCCC3)c2)c1 | inconclusive: 50.1 µM [inhibitor, partial curve, poor fit]
60 | C#CCNC(=O)[C@H]1C[C@@H](O)[C@H](O)[C@@H]2N=C(Nc3cccc4ccccc34)S[C@@H]21 | inactive

Part of the list above, field by field.
COCCNC(=O)C(=O)N1CCN(c2nc(CC(C)C)c3c(c2C#N)CCCC3)CC1
  Potency: inactive
Cc1ccc(C(=O)n2c(-c3ccccc3)cnc2SCC(=O)Nc2ccc(C)cc2C)cc1
  Potency: inactive
